These results are taken from PMC5100023.

Experiment [1] has as its target T1, MEDEA (MEA), endogenous (Arabidopsis thaliana (endogenous in Arabidopsis inflorescences)) (UniProt O65312).
T1 sequence: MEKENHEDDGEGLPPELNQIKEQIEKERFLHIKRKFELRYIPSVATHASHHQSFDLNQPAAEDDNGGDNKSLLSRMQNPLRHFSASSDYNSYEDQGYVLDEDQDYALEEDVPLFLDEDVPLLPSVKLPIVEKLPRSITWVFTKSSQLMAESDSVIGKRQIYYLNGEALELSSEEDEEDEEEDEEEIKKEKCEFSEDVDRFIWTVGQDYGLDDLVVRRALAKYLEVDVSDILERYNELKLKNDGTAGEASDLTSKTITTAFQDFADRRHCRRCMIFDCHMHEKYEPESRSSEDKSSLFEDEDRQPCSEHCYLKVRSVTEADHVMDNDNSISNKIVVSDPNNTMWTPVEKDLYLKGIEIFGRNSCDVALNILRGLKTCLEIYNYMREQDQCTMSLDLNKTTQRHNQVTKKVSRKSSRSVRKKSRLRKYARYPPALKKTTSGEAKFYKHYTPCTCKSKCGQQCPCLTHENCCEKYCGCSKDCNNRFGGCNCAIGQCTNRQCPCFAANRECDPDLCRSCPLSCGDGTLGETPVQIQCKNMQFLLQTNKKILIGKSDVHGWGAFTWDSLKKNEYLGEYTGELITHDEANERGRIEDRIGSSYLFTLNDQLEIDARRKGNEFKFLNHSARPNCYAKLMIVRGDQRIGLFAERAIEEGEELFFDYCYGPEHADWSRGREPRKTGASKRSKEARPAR
Nature of the experiment: SEC; native nuclear (chromatin-associated) extract of inflorescences of gFIE-GFP plants on Superose 6 HR 10/30 at 4 °C; fractions immunoblotted (Supplementary Fig. S6B). For orientation: In gel filtration, larger molecules generally elute earlier.

Experiment [2] concerns the target T1, MEDEA (MEA), endogenous (Arabidopsis thaliana (endogenous in Arabidopsis inflorescences)). Nature of the experiment: SEC; native cytoplasmic extract of inflorescences (flowers after anthesis) of ProFIE:FIE(gDNA)-GFP plants on Superose 6 HR 10/30 at 4 °C; 0.5 ml fractions immunoblotted with αMEA and αGFP.
The target of experiment [3] is T2, YN-GG-MEA (in Nicotiana benthamiana leaves) (Arabidopsis thaliana) (UniProt O65312).
T2 sequence: T1 sequence
Nature of the experiment: co-IP; cytoplasmic extract of N. benthamiana leaves transiently coexpressing YN-MEA and YC-FIE; monoclonal αHA or αGlu-Glu, protein G Sepharose, four washes with PBS, immunoblot.

In experiment [4] the target is T3, MEA-3×HA (Arabidopsis thaliana) (UniProt O65312).
T3 sequence: T1 sequence
Nature of the experiment: co-IP; cytoplasmic extract of inflorescences of MEA-3HA transgenic Arabidopsis; immunoprecipitated with αHA, protein G Sepharose, four washes with PBS, immunoblot with αFIE. For orientation: In western blotting, separated proteins are transferred to a membrane and probed.

The target of experiment [5] is T4, YN-GG-MEA (in Arabidopsis cotyledons) (Arabidopsis thaliana) (UniProt O65312).
T4 sequence: T1 sequence
Nature of the experiment: split reporter; BiFC with YN and YC fragments of YFP, transiently coexpressed in Arabidopsis cotyledons by Agrobacterium vacuum infiltration; confocal microscopy 48–72 h after infiltration.

These are yes or no findings as the source states them, for the method shown. For part of these data: Binding seen in cells or lysates may run through a third protein. Some results given as binding are weak or reduced against the parent protein; the word gives no strength. Sequences can lack the tags named with a protein.

B1: gFIE-GFP (FIE-green fluorescent protein fusion expressed from the ProFIE:FIE(gDNA)-GFP transgene) (protein, UniProt Q9LT47 1-369)
chain: MSKITLGNESIVGSLTPSNKKSYKVTNRIQEGKKPLYAVVFNFLDARFFDVFVTAGGNRITLYNCLGDGAISALQSYADEDKEESFYTVSWACGVNGNPYVAAGGVKGIIRVIDVNSETIHKSLVGHGDSVNEIRTQPLKPQLVITASKDESVRLWNVETGICILIFAGAGGHRYEVLSVDFHPSDIYRFASCGMDTTIKIWSMKEFWTYVEKSFTWTDDPSKFPTKFVQFPVFTASIHTNYVDCNRWFGDFILSKSVDNEILLWEPQLKENSPGEGASDVLLRYPVPMCDIWFIKFSCDLHLSSVAIGNQEGKVYVWDLKSCPPVLITKLSHNQSKSVIRQTAMSVDGSTILACCEDGTIWRWDVITK
As for B1, the binding entry in experiment [1] and in experiment [2] was “binds” throughout.

B2: YC-HA-FIE (in Nicotiana benthamiana leaves) (protein, UniProt Q9LT47 1-369)
chain: B1 chain
B2: the binding result in experiment [3] is “binds”.

B3: FERTILIZATION … ENDOSPERM (FIE), endogenous (protein, UniProt Q9LT47 1-369)
chain: B1 chain
Turning to B3, the binding entry in experiment [4] and in experiment [1] was “binds” throughout.

B4: YC-HA-FIE (in Arabidopsis cotyledons) (protein, UniProt Q9LT47 1-369)
chain: B1 chain
In the case of B4, the binding entry in experiment [5] is recorded as “binds”.
